Here are results for 22 compounds from the supplement of paper PMC8007513.

Some of the results follow. Single values are uncertain, as repeats are few or missing.

The assay concerns Saccharomyces cerevisiae BY4743. In words: growth (OD600) with compound + IPBC relative to untreated control; higher = less growth inhibition. Particulars: compound concentration: 133 uM; IPBC concentration: 0.5 ug/ml; 20 h. As for the experimental part: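 NMCCC compounds (133 uM) combined with IPBC (0.5 ug/ml) against Saccharomyces cerevisiae BY4743 in YPD, 96-well plates. Growth was read as OD600 at 20 h and expressed as % of the untreated control. Single pass.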
For the compound `N#Cc1ccccc1S(=O)(=O)N1CCN(C(=O)COc2ccccc2C(F)(F)F)CC1` + CCCCNC(=O)OCC#CI [3-iodo-2-propynyl butylcarbamate (IPBC)], the growth was found to be 98.4%.

With `CCOC(=O)c1cc(S(=O)(=O)NC2CCN(Cc3ccccc3)CC2)cn1C` + CCCCNC(=O)OCC#CI [3-iodo-2-propynyl butylcarbamate (IPBC)], the growth is 94.9%.

In the case of `CC(c1cccnc1)N(C(=O)Nc1ccc(Cl)cc1)C1CCCCC1` (configuration not stated) + CCCCNC(=O)OCC#CI [3-iodo-2-propynyl butylcarbamate (IPBC)], the growth amounted to 91.1%.

With `CCC(=O)OCC/1=C/C(=O)N/2\N=C(/SC2=N1)C(C)C` + CCCCNC(=O)OCC#CI [3-iodo-2-propynyl butylcarbamate (IPBC)], the growth stood at 87.6%.

As for `CCN(CC)CCS\C1=N\C(=C/C(=O)N1C2=CC=CC=C2C)O` + CCCCNC(=O)OCC#CI [3-iodo-2-propynyl butylcarbamate (IPBC)], the growth worked out at 96.5%.

Turning to `Cc1cc(S(=O)(=O)N(C)C)cc(NC(=O)c2c(-c3c(F)cccc3Cl)noc2C)c1C` + CCCCNC(=O)OCC#CI [3-iodo-2-propynyl butylcarbamate (IPBC)], the growth was 112%.

Regarding `CC(C)CCn1c(SC(C)C)nc2c1c(=O)[nH]c(=O)n2C` + CCCCNC(=O)OCC#CI [3-iodo-2-propynyl butylcarbamate (IPBC)], the growth amounted to 88.5%.

`CC(C)(C)c1cc(NC(=O)CSc2nnc(NCCc3cccs3)s2)on1` + CCCCNC(=O)OCC#CI [3-iodo-2-propynyl butylcarbamate (IPBC)]: the growth amounted to 82.8%.

For `Cc1ccc(OCC(=O)Nc2cc(-c3ccc(F)c(F)c3)no2)cc1C` + CCCCNC(=O)OCC#CI [3-iodo-2-propynyl butylcarbamate (IPBC)], the growth was 93.9%.

With `CC(=O)C1=C(C)OC(=C1)CCC(=O)OCC/2=C/C(=O)N/3\C=C(Cl)/C=C\C3=N2` + CCCCNC(=O)OCC#CI [3-iodo-2-propynyl butylcarbamate (IPBC)], the growth turned out to be 106%.

On to `CC(Sc1ncnc2sccc12)C(=O)Nc1cccc(C#N)c1` (configuration not stated) + CCCCNC(=O)OCC#CI [3-iodo-2-propynyl butylcarbamate (IPBC)], for which the growth is 105%.

Take `CCOC(=O)c1c(NC(=O)c2ccccc2)sc(C(C)=O)c1-c1ccccc1` + CCCCNC(=O)OCC#CI [3-iodo-2-propynyl butylcarbamate (IPBC)]: the growth worked out at 85%.

As for `CCOC(=O)N1CCN(C(=O)Cn2nc(C)c3ccccc32)CC1` + CCCCNC(=O)OCC#CI [3-iodo-2-propynyl butylcarbamate (IPBC)], the growth worked out at 94.7%.

For `COc1cccc(-c2nc(NCCO)c3ccccc3n2)c1` + CCCCNC(=O)OCC#CI [3-iodo-2-propynyl butylcarbamate (IPBC)], the growth was determined as 87.2%.

With `CC1CC(=O)Nc2cc(S(=O)(=O)N(C)C3CCCCC3)ccc2S1` (configuration not stated) + CCCCNC(=O)OCC#CI [3-iodo-2-propynyl butylcarbamate (IPBC)], the growth came to 94.2%.

With `CC(C)CCC(C)NC(=O)C1=CC2=C(C=C1Cl)N\3CCCCCC3=N/[S]2(=O)=O` (configuration not stated) + CCCCNC(=O)OCC#CI [3-iodo-2-propynyl butylcarbamate (IPBC)], the growth came to 107%.

In the case of `Cc1c(C)n(C(=O)CSc2nc[nH]n2)c2ccccc12` + CCCCNC(=O)OCC#CI [3-iodo-2-propynyl butylcarbamate (IPBC)], the growth turned out to be 80.6%.

Regarding `CCOC(=O)c1sc(-n2nc(C)c(Cc3ccccc3)c2O)nc1C` + CCCCNC(=O)OCC#CI [3-iodo-2-propynyl butylcarbamate (IPBC)], the growth stood at 104%.

With `COc1cc(CNC(=O)c2ncoc2-c2cccs2)cc(OC)c1OC` + CCCCNC(=O)OCC#CI [3-iodo-2-propynyl butylcarbamate (IPBC)], the growth was found to be 86.9%.

Regarding `FC1=CC=CC(=C1)CCNC(=O)CCC(=O)N\2CC\C(=N2)C3=CC=CC=C3` + CCCCNC(=O)OCC#CI [3-iodo-2-propynyl butylcarbamate (IPBC)], the growth amounted to 107%.

With `CCOC(=O)c1nnc2ccc(Cl)nn12` + CCCCNC(=O)OCC#CI [3-iodo-2-propynyl butylcarbamate (IPBC)], the growth was determined as 85.9%.

`CCNC(=O)NC(=O)CSc1nnc(-c2cccc(S(=O)(=O)N(CC)CC)c2)o1` + CCCCNC(=O)OCC#CI [3-iodo-2-propynyl butylcarbamate (IPBC)]: the growth came out at 37%.
